Test results published in paper PMC11374673, “Discovery of isoquinoline sulfonamides as allosteric gyrase inhibitors with activity against fluoroquinolone-resistant bacteria” (Nature Chemistry, 2024).
“And” between values parts separate entries of the source, which are not always exact repeats. Equal values may be shown once. The source gives many values for each of these; only a part stands here.

Assays:
[1] = test system: E. coli W3110; experiment: Checkerboard assay with PMBN;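 note: OD600 read after 20 h incubation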
[2] = test system: E. coli; experiment: Checkerboard assay LEI-800 with CIP; assay type: cell-based, Escherichia coli;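 note: bacterial growth read as OD600 after 20 h at 37 °C with shaking, each drug pair tested in triplicate wells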
[3] = Ciprofloxacin 0.78125 nM + PMBN 0 µM
[4] = Ciprofloxacin 0.78125 nM + PMBN 0.5 µM
[5] = Ciprofloxacin 0.78125 nM + PMBN 1 µM
[6] = Ciprofloxacin 0.78125 nM + PMBN 2 µM
[7] = Ciprofloxacin 0.78125 nM + PMBN 4 µM
[8] = Ciprofloxacin 0.78125 nM + PMBN 8 µM
[9] = Ciprofloxacin 0.78125 nM + PMBN 16 µM
[10] = Ciprofloxacin 0.78125 nM + PMBN 32 µM
[11] = Ciprofloxacin 1.5625 nM + PMBN 0 µM
[12] = Ciprofloxacin 1.5625 nM + PMBN 0.5 µM
[13] = Ciprofloxacin 1.5625 nM + PMBN 16 µM
[14] = Ciprofloxacin 1.5625 nM + PMBN 32 µM

Structure (SMILES): O=C(O)c1cn(C2CC2)c2cc(N3CCNCC3)c(F)cc2c1=O [CIP, ciprofloxacin, reference compound]
- checkerboard plate reading, Average values [1, 3]: 0.957
- checkerboard plate reading, replicate wells [1, 3]: 0.9367 and 0.9639 and 0.9706
- checkerboard plate reading, Average values [1, 4]: 0.9715
- checkerboard plate reading, replicate wells [1, 4]: 0.9788 and 0.9845 and 0.9512
- checkerboard plate reading, Average values [1, 5]: 0.9356
- checkerboard plate reading, replicate wells [1, 5]: 1.0018 and 0.8473 and 0.9577
- checkerboard plate reading, Average values [1, 6]: 0.8703
- checkerboard plate reading, replicate wells [1, 6]: 0.8441 and 0.8423 and 0.9244
- checkerboard plate reading, Average values [1, 7]: 0.7438
- checkerboard plate reading, replicate wells [1, 7]: 0.7558 and 0.7462 and 0.7295
- checkerboard plate reading, Average values [1, 8]: 0.6726
- checkerboard plate reading, replicate wells [1, 8]: 0.7607 and 0.6104 and 0.6467
- checkerboard plate reading, Average values [1, 9]: 0.6456
- checkerboard plate reading, replicate wells [1, 9]: 0.7065 and 0.5703 and 0.66
- checkerboard plate reading, Average values [1, 10]: 0.7735
- checkerboard plate reading, replicate wells [1, 10]: 0.7014 and 0.734 and 0.885
- checkerboard plate reading, Average values [1, 11]: 0.9523
- checkerboard plate reading, replicate wells [1, 11]: 0.9687 and 0.952 and 0.9362
- checkerboard plate reading, Average values [1, 12]: 0.8825
- checkerboard plate reading, replicate wells [1, 12]: 0.8916 and 0.852 and 0.9039
- checkerboard plate reading, replicate wells ([1]; Ciprofloxacin 1.5625 nM + PMBN 1 µM): 0.8788 and 0.9051 and 0.888
- checkerboard plate reading, replicate wells ([1]; Ciprofloxacin 1.5625 nM + PMBN 2 µM): 0.8967 and 0.8865 and 0.8902
- checkerboard plate reading, replicate wells ([1]; Ciprofloxacin 1.5625 nM + PMBN 4 µM): 0.7453 and 0.7124 and 0.7204
- checkerboard plate reading, replicate wells ([1]; Ciprofloxacin 1.5625 nM + PMBN 8 µM): 0.6289 and 0.6252 and 0.6368
- checkerboard plate reading, Average values [1, 13]: 0.7074
- checkerboard plate reading, replicate wells [1, 13]: 0.7012 and 0.659 and 0.7621
- checkerboard plate reading, Average values [1, 14]: 0.6964
- checkerboard plate reading, replicate wells [1, 14]: 0.6775 and 0.7178 and 0.694
- checkerboard plate reading, replicate wells ([1]; Ciprofloxacin 3.125 nM + PMBN 0 µM): 0.938 and 0.926 and 0.9194
- checkerboard plate reading, replicate wells ([1]; Ciprofloxacin 3.125 nM + PMBN 0.5 µM): 0.9104 and 0.8556 and 0.8509
- checkerboard plate reading, replicate wells ([1]; Ciprofloxacin 3.125 nM + PMBN 1 µM): 0.8735 and 0.8204 and 0.8531
- checkerboard plate reading, replicate wells ([1]; Ciprofloxacin 3.125 nM + PMBN 2 µM): 0.8169 and 0.8363 and 0.8177
- checkerboard plate reading, replicate wells ([1]; Ciprofloxacin 3.125 nM + PMBN 4 µM): 0.7538 and 0.7307
- checkerboard plate reading, replicate wells ([1]; Ciprofloxacin 3.125 nM + PMBN 8 µM): 0.6785 and 0.6508 and 0.6687
- checkerboard plate reading, replicate wells ([1]; Ciprofloxacin 3.125 nM + PMBN 16 µM): 0.6817 and 1.0386 and 0.7026
- checkerboard plate reading, replicate wells ([1]; Ciprofloxacin 3.125 nM + PMBN 32 µM): 0.6673 and 0.6657 and 0.456
- checkerboard plate reading, replicate wells ([1]; Ciprofloxacin 6.25 nM + PMBN 0 µM): 0.8797 and 0.8482 and 0.8545
- checkerboard plate reading, replicate wells ([1]; Ciprofloxacin 6.25 nM + PMBN 0.5 µM): 0.8295 and 0.7868 (2×)
- checkerboard plate reading, replicate wells ([1]; Ciprofloxacin 6.25 nM + PMBN 1 µM): 0.8045 and 0.7855 and 0.8082
- checkerboard plate reading, replicate wells ([1]; Ciprofloxacin 6.25 nM + PMBN 2 µM): 0.8079 and 0.7912 and 0.8017
- checkerboard plate reading, replicate wells ([1]; Ciprofloxacin 6.25 nM + PMBN 4 µM): 0.7505 and 0.7264 and 0.7098
- checkerboard plate reading, replicate wells ([1]; Ciprofloxacin 6.25 nM + PMBN 8 µM): 0.6878 and 0.6137 and 0.6587
- checkerboard plate reading, replicate wells ([1]; Ciprofloxacin 6.25 nM + PMBN 16 µM): 0.6069 and 0.5772 and 0.5746
- checkerboard plate reading, replicate wells ([1]; Ciprofloxacin 6.25 nM + PMBN 32 µM): 0.5669 and 0.4725 and 0.4204
- checkerboard plate reading, replicate wells ([1]; Ciprofloxacin 12.5 nM + PMBN 0 µM): 0.8762 and 0.8322 and 0.8129
- checkerboard plate reading, replicate wells ([1]; Ciprofloxacin 12.5 nM + PMBN 0.5 µM): 0.8025 and 0.7009 and 0.703
- checkerboard plate reading, replicate wells ([1]; Ciprofloxacin 12.5 nM + PMBN 1 µM): 0.7527 and 0.7343 and 0.7035
- checkerboard plate reading, replicate wells ([1]; Ciprofloxacin 12.5 nM + PMBN 2 µM): 0.7224 and 0.7157 and 0.731
- checkerboard plate reading, replicate wells ([1]; Ciprofloxacin 12.5 nM + PMBN 4 µM): 0.6942 and 0.6727 and 0.6431
- checkerboard plate reading, replicate wells ([1]; Ciprofloxacin 12.5 nM + PMBN 8 µM): 0.5427 and 0.5348 and 0.6272
- checkerboard plate reading, replicate wells ([1]; Ciprofloxacin 12.5 nM + PMBN 16 µM): 0.6321 and 0.7181 and 0.676
- checkerboard plate reading, replicate wells ([1]; Ciprofloxacin 12.5 nM + PMBN 32 µM): 0.5556 and 0.461 and 0.4884
- checkerboard plate reading, replicate wells ([1]; Ciprofloxacin 25 nM + PMBN 0 µM): 0.4777 and 0.4961 and 0.4937
- checkerboard plate reading, replicate wells ([1]; Ciprofloxacin 25 nM + PMBN 0.5 µM): 0.4579 and 0.5843 and 0.5181
- checkerboard plate reading, replicate wells ([1]; Ciprofloxacin 25 nM + PMBN 1 µM): 0.463 and 0.5493 and 0.476
- checkerboard plate reading, replicate wells ([1]; Ciprofloxacin 25 nM + PMBN 2 µM): 0.4576 and 0.4326 and 0.4258
- checkerboard plate reading, replicate wells ([1]; Ciprofloxacin 25 nM + PMBN 4 µM): 0.4811 and 0.4544 and 0.3164
- checkerboard plate reading, replicate wells ([1]; Ciprofloxacin 25 nM + PMBN 8 µM): 0.2629 and 0.2525 and 0.2469
- checkerboard plate reading, replicate wells ([1]; Ciprofloxacin 25 nM + PMBN 16 µM): 0.2049 and 0.1903 and 0.1929
- checkerboard plate reading, replicate wells ([1]; Ciprofloxacin 25 nM + PMBN 32 µM): 0.2173 and 0.2055 and 0.208
- checkerboard plate reading, replicate wells ([1]; Ciprofloxacin 50 nM + PMBN 0 µM): 0.2022 and 0.1983 and 0.1968
- checkerboard plate reading, replicate wells ([1]; Ciprofloxacin 50 nM + PMBN 0.5 µM): 0.1996 and 0.2121 (2×)
- checkerboard plate reading, replicate wells ([1]; Ciprofloxacin 50 nM + PMBN 1 µM): 0.2047 and 0.2226 and 0.2136
- checkerboard plate reading, replicate wells ([1]; Ciprofloxacin 50 nM + PMBN 2 µM): 0.1725 and 0.1735 and 0.1853
- checkerboard plate reading, replicate wells ([1]; Ciprofloxacin 50 nM + PMBN 4 µM): 0.1719 and 0.1646 and 0.167
- checkerboard plate reading, replicate wells ([1]; Ciprofloxacin 50 nM + PMBN 8 µM): 0.1715 and 0.1645 and 0.1653
- checkerboard plate reading, replicate wells ([1]; Ciprofloxacin 50 nM + PMBN 16 µM): 0.1641 and 0.1738 and 0.1676
- checkerboard plate reading, replicate wells ([1]; Ciprofloxacin 50 nM + PMBN 32 µM): 0.1655 and 0.1715 and 0.1843
- checkerboard plate reading, replicate wells ([2]; Ciprofloxacin 3.125 nM + LEI-800 0 µM): 0.8619 and 0.7974 and 0.7155
- checkerboard plate reading, replicate wells ([2]; Ciprofloxacin 3.125 nM + LEI-800 0.1 µM): 0.6658 and 0.7673 and 0.8284
- checkerboard plate reading, replicate wells ([2]; Ciprofloxacin 3.125 nM + LEI-800 0.2 µM): 0.6992 and 0.6309 and 0.75
- checkerboard plate reading, replicate wells ([2]; Ciprofloxacin 3.125 nM + LEI-800 0.4 µM): 0.6077 and 0.6127 and 0.6589
- checkerboard plate reading, replicate wells ([2]; Ciprofloxacin 3.125 nM + LEI-800 0.8 µM): 0.6013 and 0.5989 and 0.5487
- checkerboard plate reading, replicate wells ([2]; Ciprofloxacin 3.125 nM + LEI-800 3.1 µM): 0.2711 and 0.2599 and 0.2829
- checkerboard plate reading, replicate wells ([2]; Ciprofloxacin 3.125 nM + LEI-800 6.2 µM): 0.1396 and 0.1415 and 0.1422
- checkerboard plate reading, replicate wells ([2]; Ciprofloxacin 6.25 nM + LEI-800 0 µM): 0.8794 and 0.78 and 0.7521
- checkerboard plate reading, replicate wells ([2]; Ciprofloxacin 6.25 nM + LEI-800 0.1 µM): 0.7218 and 0.6826 and 0.6655
- checkerboard plate reading, replicate wells ([2]; Ciprofloxacin 6.25 nM + LEI-800 0.2 µM): 0.6387 and 0.609 and 0.6296
- checkerboard plate reading, replicate wells ([2]; Ciprofloxacin 6.25 nM + LEI-800 0.4 µM): 0.6391 and 0.6496 and 0.6659
- checkerboard plate reading, replicate wells ([2]; Ciprofloxacin 6.25 nM + LEI-800 0.8 µM): 0.6019 and 0.5603 and 0.5569
- checkerboard plate reading, replicate wells ([2]; Ciprofloxacin 6.25 nM + LEI-800 3.1 µM): 0.2628 and 0.3171 and 0.2725
- checkerboard plate reading, replicate wells ([2]; Ciprofloxacin 6.25 nM + LEI-800 6.2 µM): 0.1627 and 0.1452 and 0.1544
- checkerboard plate reading, replicate wells ([2]; Ciprofloxacin 12.5 nM + LEI-800 0 µM): 0.8456 and 0.8481 and 0.756
- checkerboard plate reading, replicate wells ([2]; Ciprofloxacin 12.5 nM + LEI-800 0.1 µM): 0.6961 and 0.6864 and 0.6843
- checkerboard plate reading, replicate wells ([2]; Ciprofloxacin 12.5 nM + LEI-800 0.2 µM): 0.6231 and 0.6423
- checkerboard plate reading, replicate wells ([2]; Ciprofloxacin 12.5 nM + LEI-800 0.8 µM): 0.6408 and 0.6065 and 0.5671
- checkerboard plate reading, replicate wells ([2]; Ciprofloxacin 12.5 nM + LEI-800 3.1 µM): 0.2892 and 0.2347 and 0.2421
- checkerboard plate reading, replicate wells ([2]; Ciprofloxacin 12.5 nM + LEI-800 6.2 µM): 0.1324 and 0.1416 and 0.1522
